According to paper PMC5024086, “Fine-tuning of amino sugar homeostasis by EIIA^Ntr in Salmonella Typhimurium” (Scientific Reports, 2016):
No constants are given. Whether binding was seen depends on the method and setting. In cells and extracts the contact can be indirect. A result given as binding can be weak or reduced; the word gives no strength. Sequences can lack the tags named with a protein.

Biological target: T1, GlmS tagged with His6 at its N-terminus (His6-GlmS), co-produced with EIIA^Ntr from pETDuet-glmS·ptsN (Salmonella Typhimurium) (UniProt Q8ZKX1)
T1 sequence: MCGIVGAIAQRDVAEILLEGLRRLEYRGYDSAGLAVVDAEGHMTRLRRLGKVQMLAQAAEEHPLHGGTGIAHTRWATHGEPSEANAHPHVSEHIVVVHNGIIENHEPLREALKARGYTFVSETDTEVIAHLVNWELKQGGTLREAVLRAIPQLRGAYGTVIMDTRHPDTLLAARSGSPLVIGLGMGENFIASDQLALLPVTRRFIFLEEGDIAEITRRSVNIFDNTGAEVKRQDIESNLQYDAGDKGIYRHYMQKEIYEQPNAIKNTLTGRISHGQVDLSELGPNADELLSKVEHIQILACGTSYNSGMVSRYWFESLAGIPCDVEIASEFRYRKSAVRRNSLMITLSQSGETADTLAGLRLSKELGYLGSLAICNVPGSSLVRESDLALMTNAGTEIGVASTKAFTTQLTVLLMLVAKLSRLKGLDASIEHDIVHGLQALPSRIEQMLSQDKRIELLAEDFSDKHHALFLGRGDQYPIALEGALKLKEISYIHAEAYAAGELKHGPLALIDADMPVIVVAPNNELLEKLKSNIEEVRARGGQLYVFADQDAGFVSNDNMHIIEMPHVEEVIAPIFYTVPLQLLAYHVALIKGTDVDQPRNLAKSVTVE
Test: pull-down; His6-GlmS and EIIA^Ntr co-produced in E. coli BL21 (DE3) from pETDuet-glmS·ptsN; extract on Ni-NTA resin, 20 mM Tris-HCl pH 8.0, 300 mM NaCl, eluted with 50–200 mM imidazole; SDS-PAGE, Coomassie

binding: binds
Substance: EIIA^Ntr co-produced with His6-GlmS from pETDuet-glmS·ptsN (Salmonella Typhimurium)
